Results are given in words; binding and its absence hold for the method and conditions named. Binding seen in cells or lysates may run through a third protein. Some entries that bind do so weakly or less than the wild type. For some of these results: Sequences can lack the tags named with a protein.
How the values were obtained:
[1] = target: T1, purine-rich element binding protein alpha (PURα) (human (endogenous in KYSE510)) (UniProt Q00577); test: co-IP; endogenous proteins in KYSE510 cells, immunoprecipitation of PURα, blots of candidate proteins; with and without RNase
T1 sequence: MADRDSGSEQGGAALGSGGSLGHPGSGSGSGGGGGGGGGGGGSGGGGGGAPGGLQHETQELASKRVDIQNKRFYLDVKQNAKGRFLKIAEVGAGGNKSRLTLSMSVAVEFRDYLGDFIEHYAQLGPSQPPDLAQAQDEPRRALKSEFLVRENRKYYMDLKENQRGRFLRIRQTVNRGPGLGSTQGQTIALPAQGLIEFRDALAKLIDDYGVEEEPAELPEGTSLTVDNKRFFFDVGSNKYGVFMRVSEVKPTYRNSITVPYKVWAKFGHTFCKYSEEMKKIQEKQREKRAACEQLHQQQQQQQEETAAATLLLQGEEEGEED

Sequences of proteins named here, by UniProt entry; tags and fusion partners are left off.
UniProt O00303: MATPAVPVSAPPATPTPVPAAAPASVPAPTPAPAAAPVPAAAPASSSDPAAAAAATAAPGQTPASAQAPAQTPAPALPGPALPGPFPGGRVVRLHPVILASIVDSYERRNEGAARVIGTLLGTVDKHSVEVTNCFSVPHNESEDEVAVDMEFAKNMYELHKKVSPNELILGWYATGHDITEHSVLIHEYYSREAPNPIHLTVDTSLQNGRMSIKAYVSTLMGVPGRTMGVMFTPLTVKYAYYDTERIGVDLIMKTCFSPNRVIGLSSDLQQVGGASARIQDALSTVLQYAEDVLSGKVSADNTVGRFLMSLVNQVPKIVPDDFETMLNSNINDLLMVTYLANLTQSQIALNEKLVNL
UniProt P11940: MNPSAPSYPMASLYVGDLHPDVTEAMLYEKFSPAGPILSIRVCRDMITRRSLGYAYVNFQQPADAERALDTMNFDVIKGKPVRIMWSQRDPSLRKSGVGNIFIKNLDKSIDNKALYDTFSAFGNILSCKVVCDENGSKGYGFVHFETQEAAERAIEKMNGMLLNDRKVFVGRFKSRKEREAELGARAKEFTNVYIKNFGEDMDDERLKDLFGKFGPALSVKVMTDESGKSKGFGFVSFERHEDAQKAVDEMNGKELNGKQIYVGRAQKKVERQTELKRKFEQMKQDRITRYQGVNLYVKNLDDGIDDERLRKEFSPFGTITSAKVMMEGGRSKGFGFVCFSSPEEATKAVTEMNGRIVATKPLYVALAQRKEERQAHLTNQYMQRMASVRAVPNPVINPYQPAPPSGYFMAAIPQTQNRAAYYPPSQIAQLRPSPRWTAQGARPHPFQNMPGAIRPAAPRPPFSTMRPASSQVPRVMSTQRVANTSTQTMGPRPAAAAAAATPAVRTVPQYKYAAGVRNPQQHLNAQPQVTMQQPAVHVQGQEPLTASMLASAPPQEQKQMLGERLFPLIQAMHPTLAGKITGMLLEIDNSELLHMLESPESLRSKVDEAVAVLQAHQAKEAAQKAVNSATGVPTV
UniProt P55884: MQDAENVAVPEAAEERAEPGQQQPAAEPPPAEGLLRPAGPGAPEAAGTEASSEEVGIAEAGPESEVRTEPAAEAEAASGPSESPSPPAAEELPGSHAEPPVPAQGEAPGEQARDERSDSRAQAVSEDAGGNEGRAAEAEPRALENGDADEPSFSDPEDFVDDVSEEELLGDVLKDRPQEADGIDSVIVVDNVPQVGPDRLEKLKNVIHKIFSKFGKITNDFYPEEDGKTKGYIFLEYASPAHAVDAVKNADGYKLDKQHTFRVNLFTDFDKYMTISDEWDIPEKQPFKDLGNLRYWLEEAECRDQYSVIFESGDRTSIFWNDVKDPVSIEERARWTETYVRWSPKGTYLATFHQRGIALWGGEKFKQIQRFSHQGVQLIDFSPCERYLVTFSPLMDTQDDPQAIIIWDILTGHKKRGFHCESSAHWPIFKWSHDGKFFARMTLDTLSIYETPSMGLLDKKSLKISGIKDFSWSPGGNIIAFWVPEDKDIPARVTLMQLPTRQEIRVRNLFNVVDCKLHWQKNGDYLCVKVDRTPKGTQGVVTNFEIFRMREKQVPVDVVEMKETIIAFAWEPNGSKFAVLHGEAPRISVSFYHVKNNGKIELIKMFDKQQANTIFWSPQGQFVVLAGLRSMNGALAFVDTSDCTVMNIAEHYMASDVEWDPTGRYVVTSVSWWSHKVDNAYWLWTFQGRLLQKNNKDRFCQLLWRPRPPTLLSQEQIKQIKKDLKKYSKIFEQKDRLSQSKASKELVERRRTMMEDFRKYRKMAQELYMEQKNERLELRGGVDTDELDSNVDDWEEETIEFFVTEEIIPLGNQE

[2] = target: T2, PURα-Flag (human) (UniProt Q00577); test: co-IP; PURα-Flag and PABPC1-HA overexpressed in 293 cells; which one was precipitated is not stated
T2 sequence: T1 sequence

binding [1]	binding [2]	Substance
binds		EIF3F (from UniProt O00303 1-357)
binds		PABPC1 (from UniProt P11940 1-636)
	binds	PABPC1-HA (from UniProt P11940 1-636)
binds		EIF3B (from UniProt P55884 1-814)
